# In paper PMC3743553 (Journal of child neurology, 2012):
# Columns and labels:
# YG8R mouse = conditions: cited from earlier work
# [1] = rat; cited from earlier work
# FXN messenger RNA = FXN messenger RNA by qRT-PCR in peripheral blood mononuclear cells; type: cell-based, human; conditions: 10 μM, 48 hours
smiles,measurement,setting,value
Cc1ccc(C(=O)NCCCCCC(=O)Nc2ccccc2N)cc1 [compound 109],acetylation of specific histone residues at the FXN locus,YG8R mouse,significantly increased
same,brain aconitase enzyme activity,YG8R mouse,significant increases
same,frataxin protein expression in brain tissue,YG8R mouse,significantly increased
same,global histone H3 and H4 acetylation of brain tissue,YG8R mouse,increased
same,neuronal pathology of the dorsal root ganglia,YG8R mouse,reduction
same,locomotor activity,YG8R mouse; long-term treatment,increased
same,motor coordination,YG8R mouse; long-term treatment,improvement
same,brain penetration (brain/plasma ratio at tmax),[1],0.15
same,"FXN messenger RNA, cells from patients with Friedreich ataxia",FXN messenger RNA; peripheral blood mononuclear cells from affected individuals,significant increases
same,"FXN messenger RNA, wild-type alleles in cells from unaffected individuals",FXN messenger RNA; peripheral blood mononuclear cells from unaffected individuals,only a very small effect
